From PubChem BioAssay AID540256 (National Center for Advancing Translational Sciences (NCATS), 2011)
About 3,700 (1.2%) of roughly 300,000 compounds were called active. The inconclusive results got no clear call from the source; some entries with a clear call stand among them for comparison. The call rests on the fitted dose curve; tested in HEK293 cells. Where the call is inconclusive, the potency comes from a doubtful curve fit.
Potency means the concentration at half of the fitted maximal effect.

Test: qHTS for Inhibitors of binding or entry into cells for Lassa Virus; further: nearly all actives have a fitted effect of over 50% in size
Conditions: Lassa virus pseudotype entry inhibition, cell reporter; series mostly up to 37.9 µM
In the case of `CCOc1ccc(S(=O)(=O)N2CCCC(C(=O)NCc3cccnc3)C2)cc1C` (configuration not stated), the Potency is reported as inconclusive: 35.5 µM [inhibitor, single point]. In the case of `Cc1ccc(CNC(=O)c2ccc(Cn3c(=O)c4ccccc4n(CC(=O)Nc4c(C)cc(C)cc4C)c3=O)cc2)cc1`, the Potency is reported as “inactive”. For `Cc1cc(-c2ccccc2)cc(-c2ccccc2)[n+]1C`, the Potency was inconclusive: 35.5 µM [inhibitor, partial curve, poor fit]. For `COc1ccccc1N(C)S(=O)(=O)c1ccc(C(=O)Nc2ccc3nc(C)sc3c2)cc1`, the Potency was inconclusive: 25.1 µM [inhibitor, single point]. For `Cc1nn(C)c(C(=O)N2CCc3ccccc32)c1Br`, the Potency was “inactive”. In the case of `COc1ccc(OCC2CNC(=O)O2)cc1` (configuration not stated), the Potency is reported as inconclusive: 9.2 µM [inhibitor, single point]. For `COc1ccc(/C=N/Nc2ncnc3c2[nH]c2ccc(C)cc23)c(OC)c1OC`, the Potency was inconclusive: 12.6 µM [inhibitor, partial curve, poor fit]. In the case of `Cc1ccc([C@H]2C[C@@H](O)[C@H](n3cc(C4CC4)nn3)CN2Cc2cccs2)cc1`, the Potency is reported as inconclusive: 3.53 µM [inhibitor, full curve, poor fit]. With `O=C(/C=C/c1ccc(OC2CSC2)cc1)c1ccccc1` the Potency was inconclusive: 18.3 µM [inhibitor, single point]. In the case of `CCOc1ccc2nc(NC(=O)Nc3ccccc3)sc2c1`, the Potency is reported as inconclusive: 0.231 µM [activator, full curve, poor fit]. For `CN(c1ccc(C(=O)Nc2ccc(F)cc2F)cc1)S(=O)(=O)c1ccccc1`, the Potency was active: 11.2 µM. With `CC1=C(c2ccc(C)cc2)S(=O)(=O)N(Cc2ccc(C(=O)Nc3ccc(C)c(F)c3)cc2)C1=O` the Potency was inconclusive: 17.8 µM [activator, single point]. With `O=C1CC(c2ccccc2)SC(N(c2ccccc2)c2ccccc2)=N1` (configuration not stated) the Potency was inconclusive: 3.55 µM [inhibitor, single point]. For `O=C(NC1CCCCCC1)C(=S)NC1CCCCC1`, the Potency was inconclusive: 0.1 µM [activator, full curve, poor fit]. With `COC(=O)c1c(NC(=O)c2ccco2)sc2c1C(C(=O)OC)CC2` (configuration not stated) the Potency was inconclusive: 5.62 µM [inhibitor, partial curve]. For `CC(=O)c1c(C)oc2c1cc(NS(=O)(=O)c1ccc(C(=O)O)cc1)c1ccccc12`, the Potency was inconclusive: 15.8 µM [inhibitor, single point]. With `CCN(CC)CCNCC(=O)N1c2ccccc2CCc2ccc(NC(=O)OC)cc21` the Potency was inconclusive: 6.31 µM [activator, partial curve]. For `Cc1ccc(C)c(NC(=O)C2C(c3ccccc3)C2(Cl)Cl)c1` (configuration not stated), the Potency was inconclusive: 18.3 µM [inhibitor, partial curve, poor fit]. In the case of `CCOc1ccc(CNC(=O)c2nn(-c3ccc(OC)cc3)c(=O)c3c2c2ccccc2n3C)cc1`, the Potency is reported as inconclusive: 7.94 µM [activator, partial curve]. For `O=C(CCN1C(=O)c2ccccc2C1=O)Nc1sc2c(c1C(=O)NCC1CCCO1)CCC2` (configuration not stated), the Potency was inconclusive: 4.47 µM [activator, single point]. In the case of `CCC(=O)Nc1cc2nn(-c3ccc(OC)cc3)nc2cc1C`, the Potency is reported as “inactive”. In the case of `COc1cccc2cc(C(=O)Nc3cccc(C)n3)c(=O)oc12`, the Potency is reported as inconclusive: 0.178 µM [activator, full curve, poor fit]. In the case of `Cc1ccc(-c2cc(C(=O)N/N=C\c3cnn(C)c3C)c3ccccc3n2)cc1C`, the Potency is reported as active: 11.2 µM. With `N#CCC(=O)N/N=C/c1ccc(OCc2ccccc2)cc1` the Potency was inconclusive: 14.1 µM [inhibitor, partial curve, poor fit]. For `COCCn1c(=O)[nH]c2cc(C(=O)N3CCN(c4ccccc4)CC3)ccc2c1=O`, the Potency was inconclusive: 2.82 µM [activator, single point]. With `Cn1c(CNC(=O)c2ccco2)nnc1SCCOc1ccccc1` the Potency was inconclusive: 3.98 µM [inhibitor, single point]. For `CCOc1ccc(-n2c(=O)[nH]cc(C(=O)Nc3ccc(OC)c(OC)c3)c2=O)cc1`, the Potency was inconclusive: 0.562 µM [inhibitor, full curve, poor fit]. With `COc1ccc(OCCn2c(NC(=O)c3ccco3)nc3ccccc32)cc1` the Potency was “inactive”. In the case of `COc1ccc(NC(=O)CN(c2ccccc2)S(=O)(=O)N(C)C)cc1OC`, the Potency is reported as inconclusive: 7.3 µM [activator, partial curve, poor fit]. With `COc1ccccc1/C=C/C(=O)NCCc1ccccn1` the Potency was inconclusive: 5.62 µM [inhibitor, single point]. In the case of `COc1cc(OC)cc(C(=O)NCCNC(=O)c2ccccc2)c1`, the Potency is reported as “inactive”. With `CC(C)c1ccc(C2=NN(c3ccccc3)C(=O)CC2)cc1` the Potency was inconclusive: 35.5 µM [inhibitor, single point]. In the case of `O=C(O)c1cc(N/N=C/C(Cl)=C/c2ccccc2)ccc1Cl`, the Potency is reported as inconclusive: 3.16 µM [inhibitor, full curve, poor fit]. In the case of `CCOc1ccc(OCCSc2nc(C)cc(=O)[nH]2)cc1`, the Potency is reported as inconclusive: 2.82 µM [activator, partial curve, poor fit]. For `CCOC(=O)C1=Nc2ccccc2C1=[N+]=[N-]`, the Potency was inconclusive: 11.2 µM [inhibitor, partial curve, poor fit]. With `COc1ccccc1C(=O)N/C(=C\c1ccccc1)C(=O)NC(C)C(=O)O` (configuration not stated) the Potency was “inactive”. For `Cc1nnc(SCC(=O)N2CC(=O)Nc3ccccc32)n1Cc1ccccc1`, the Potency was “inactive”. For `CCN(CC)S(=O)(=O)c1cccc(NC(=O)c2ccc(-n3nc(C)cc3C)cc2)c1`, the Potency was inconclusive: 20 µM [inhibitor, partial curve, poor fit]. In the case of `CC(C)/C=N/Nc1nc(-c2ccc(Br)cc2)cs1`, the Potency is reported as “inactive”. In the case of `Cc1cc(C)cc(NC(=O)C2CCN(S(=O)(=O)c3cn(C)cn3)CC2)c1`, the Potency is reported as “inactive”. In the case of `CCOc1cccc(C(=O)Nc2cnn(Cc3ccccc3)c2)c1`, the Potency is reported as inconclusive: 8.91 µM [inhibitor, partial curve, poor fit]. In the case of `CCC(=O)Nc1ccc(/C(C)=N\NC(=O)c2ccc(C)s2)cc1`, the Potency is reported as “inactive”. For `COC(=O)c1c(C(=O)OC)c(C)n(Cc2ccco2)c1C`, the Potency was “inactive”. In the case of `CC(C)Cc1ccc(CN2CCCC(NC(=O)c3cnc4ccccn4c3=O)C2)cc1` (configuration not stated), the Potency is reported as inconclusive: 4.47 µM [inhibitor, full curve]. With `Cc1ccc(OCC(=O)NC2CCCC2)c(C)c1` the Potency was inconclusive: 14.1 µM [activator, single point]. In the case of `CCOc1ccc(C(=O)NC(=S)Nc2ccccc2N2CCOCC2)cc1Br`, the Potency is reported as inconclusive: 17.8 µM [inhibitor, partial curve, poor fit]. With `Cc1cc(C)c2oc(-c3ccc(Cl)c(NC(=O)c4cccs4)c3)nc2c1` the Potency was inconclusive: 2.82 µM [activator, full curve]. In the case of `N/C(=N\OS(=O)(=O)c1ccccc1)c1ccccn1`, the Potency is reported as “inactive”. For `COc1ccccc1NC(=O)c1cnc(SCC(=O)N2CCOCC2)n(C)c1=O`, the Potency was “inactive”. For `COC(=O)c1sccc1NC(=O)c1cccc(Cl)c1`, the Potency was inconclusive: 0.891 µM [inhibitor, partial curve, poor fit]. For `COc1ccc2c(c1)c1c(c(=O)n(Cc3ccccc3)c(=O)n1Cc1cccc(Cl)c1)n2C`, the Potency was inconclusive: 3.55 µM [activator, partial curve, poor fit]. For `Cc1cc(C(=O)Nc2ccc(Cl)cc2)c(C)n1-c1ccccc1`, the Potency was inconclusive: 0.355 µM [inhibitor, full curve, poor fit]. With `COc1ccc(-c2n[nH]c3c2cnc2ccc(F)cc23)cc1` the Potency was inconclusive: 6.31 µM [activator, partial curve]. In the case of `Cc1c(NC(=O)c2cn3ccccc3n2)cccc1-n1cnnn1`, the Potency is reported as “inactive”. For `O=C(COc1ccc(-c2nnc(N3CCCCC3)c3ccccc23)cc1)N1CCCCC1`, the Potency was inconclusive: 12.6 µM [inhibitor, single point]. For `Nc1ccc2c(c1)OC1(CCCC1)O2`, the Potency was active: 15.8 µM. In the case of `CCCCc1ccc(NC(=S)N2CCN(c3ncccn3)CC2)cc1`, the Potency is reported as inconclusive: 8.91 µM [inhibitor, partial curve, poor fit]. In the case of `COc1ccc(C2=NN(C(=O)CSc3ncccn3)C(c3cccc(OC)c3OC)C2)cc1` (configuration not stated), the Potency is reported as inconclusive: 17.8 µM [inhibitor, partial curve, poor fit]. With `CC(C)c1ccc(NC(=O)C(=O)c2cn(CC(=O)N3CCCCC3)c3ccccc23)cc1` the Potency was inconclusive: 12.6 µM [inhibitor, single point]. For `Cc1ccc(CC2C(=O)N(c3cc(Cl)ccn3)C(=O)C2C)cc1` (configuration not stated), the Potency was “inactive”. In the case of `COc1ccc(CCNC(=O)c2ccc(Cn3c(=O)c4ccccc4n(Cc4cccc(F)c4)c3=O)cc2)cc1OC`, the Potency is reported as inconclusive: 7.08 µM [inhibitor, partial curve, poor fit]. With `COC(=O)C(O)(c1ccc(NC(=S)NC(=O)c2ccc(Cl)cc2Cl)c(C)c1)C(F)(F)F` (configuration not stated) the Potency was active: 5.8 µM. With `COc1ccc(C)cc1COC(=O)c1[nH]c(C)c(C(C)=O)c1C` the Potency was inconclusive: 8.91 µM [inhibitor, partial curve, poor fit]. With `O=C1c2ccccc2CCc2ccccc21` the Potency was “inactive”. For `Cn1c(=O)c2c(nc(Br)n2Cc2ccccc2Cl)n(C)c1=O`, the Potency was “inactive”. In the case of `COc1ccc(N(CC(=O)N2CCN(c3ccccc3)CC2)S(=O)(=O)c2ccc(C)cc2)cc1`, the Potency is reported as “inactive”. For `CCOC(=O)c1[nH]c2ccccc2c1NC(=S)Nc1cccc(C)c1`, the Potency was inconclusive: 25.9 µM [activator, single point].
